Experiment [1] concerns the target T1, FLAG-tagged mutant TBL1XR1 (TBL1XR1^Phe10Leu), expressed in 293FT cells (UniProt Q9BZK7).
T1 sequence: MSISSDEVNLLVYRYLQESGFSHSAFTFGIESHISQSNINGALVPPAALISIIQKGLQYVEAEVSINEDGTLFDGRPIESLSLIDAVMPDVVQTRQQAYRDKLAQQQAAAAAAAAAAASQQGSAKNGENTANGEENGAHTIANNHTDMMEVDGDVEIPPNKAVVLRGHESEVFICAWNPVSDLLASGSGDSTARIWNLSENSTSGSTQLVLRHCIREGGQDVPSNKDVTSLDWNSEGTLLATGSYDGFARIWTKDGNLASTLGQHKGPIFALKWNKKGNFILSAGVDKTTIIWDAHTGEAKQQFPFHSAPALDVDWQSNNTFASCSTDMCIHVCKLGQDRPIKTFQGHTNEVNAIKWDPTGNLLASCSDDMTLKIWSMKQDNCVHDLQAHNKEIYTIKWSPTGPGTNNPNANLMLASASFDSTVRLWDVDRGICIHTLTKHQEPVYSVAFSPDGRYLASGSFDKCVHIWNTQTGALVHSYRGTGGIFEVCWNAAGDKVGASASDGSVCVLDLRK
In words: co-IP; lysate of transfected 293FT cells in 50 mM Tris-HCl pH 7.4, 150 mM sodium chloride, 1% NP-40, 0.3% sodium deoxycholate, 0.1% SDS, protease inhibitors; primary antibodies and protein G Plus/Protein A agarose; Western blot, densitometry. (A western blot detects proteins with antibodies after separation by electrophoresis.)

The chains behind the UniProt entries cited, without tags or fusion partners.
UniProt O75376: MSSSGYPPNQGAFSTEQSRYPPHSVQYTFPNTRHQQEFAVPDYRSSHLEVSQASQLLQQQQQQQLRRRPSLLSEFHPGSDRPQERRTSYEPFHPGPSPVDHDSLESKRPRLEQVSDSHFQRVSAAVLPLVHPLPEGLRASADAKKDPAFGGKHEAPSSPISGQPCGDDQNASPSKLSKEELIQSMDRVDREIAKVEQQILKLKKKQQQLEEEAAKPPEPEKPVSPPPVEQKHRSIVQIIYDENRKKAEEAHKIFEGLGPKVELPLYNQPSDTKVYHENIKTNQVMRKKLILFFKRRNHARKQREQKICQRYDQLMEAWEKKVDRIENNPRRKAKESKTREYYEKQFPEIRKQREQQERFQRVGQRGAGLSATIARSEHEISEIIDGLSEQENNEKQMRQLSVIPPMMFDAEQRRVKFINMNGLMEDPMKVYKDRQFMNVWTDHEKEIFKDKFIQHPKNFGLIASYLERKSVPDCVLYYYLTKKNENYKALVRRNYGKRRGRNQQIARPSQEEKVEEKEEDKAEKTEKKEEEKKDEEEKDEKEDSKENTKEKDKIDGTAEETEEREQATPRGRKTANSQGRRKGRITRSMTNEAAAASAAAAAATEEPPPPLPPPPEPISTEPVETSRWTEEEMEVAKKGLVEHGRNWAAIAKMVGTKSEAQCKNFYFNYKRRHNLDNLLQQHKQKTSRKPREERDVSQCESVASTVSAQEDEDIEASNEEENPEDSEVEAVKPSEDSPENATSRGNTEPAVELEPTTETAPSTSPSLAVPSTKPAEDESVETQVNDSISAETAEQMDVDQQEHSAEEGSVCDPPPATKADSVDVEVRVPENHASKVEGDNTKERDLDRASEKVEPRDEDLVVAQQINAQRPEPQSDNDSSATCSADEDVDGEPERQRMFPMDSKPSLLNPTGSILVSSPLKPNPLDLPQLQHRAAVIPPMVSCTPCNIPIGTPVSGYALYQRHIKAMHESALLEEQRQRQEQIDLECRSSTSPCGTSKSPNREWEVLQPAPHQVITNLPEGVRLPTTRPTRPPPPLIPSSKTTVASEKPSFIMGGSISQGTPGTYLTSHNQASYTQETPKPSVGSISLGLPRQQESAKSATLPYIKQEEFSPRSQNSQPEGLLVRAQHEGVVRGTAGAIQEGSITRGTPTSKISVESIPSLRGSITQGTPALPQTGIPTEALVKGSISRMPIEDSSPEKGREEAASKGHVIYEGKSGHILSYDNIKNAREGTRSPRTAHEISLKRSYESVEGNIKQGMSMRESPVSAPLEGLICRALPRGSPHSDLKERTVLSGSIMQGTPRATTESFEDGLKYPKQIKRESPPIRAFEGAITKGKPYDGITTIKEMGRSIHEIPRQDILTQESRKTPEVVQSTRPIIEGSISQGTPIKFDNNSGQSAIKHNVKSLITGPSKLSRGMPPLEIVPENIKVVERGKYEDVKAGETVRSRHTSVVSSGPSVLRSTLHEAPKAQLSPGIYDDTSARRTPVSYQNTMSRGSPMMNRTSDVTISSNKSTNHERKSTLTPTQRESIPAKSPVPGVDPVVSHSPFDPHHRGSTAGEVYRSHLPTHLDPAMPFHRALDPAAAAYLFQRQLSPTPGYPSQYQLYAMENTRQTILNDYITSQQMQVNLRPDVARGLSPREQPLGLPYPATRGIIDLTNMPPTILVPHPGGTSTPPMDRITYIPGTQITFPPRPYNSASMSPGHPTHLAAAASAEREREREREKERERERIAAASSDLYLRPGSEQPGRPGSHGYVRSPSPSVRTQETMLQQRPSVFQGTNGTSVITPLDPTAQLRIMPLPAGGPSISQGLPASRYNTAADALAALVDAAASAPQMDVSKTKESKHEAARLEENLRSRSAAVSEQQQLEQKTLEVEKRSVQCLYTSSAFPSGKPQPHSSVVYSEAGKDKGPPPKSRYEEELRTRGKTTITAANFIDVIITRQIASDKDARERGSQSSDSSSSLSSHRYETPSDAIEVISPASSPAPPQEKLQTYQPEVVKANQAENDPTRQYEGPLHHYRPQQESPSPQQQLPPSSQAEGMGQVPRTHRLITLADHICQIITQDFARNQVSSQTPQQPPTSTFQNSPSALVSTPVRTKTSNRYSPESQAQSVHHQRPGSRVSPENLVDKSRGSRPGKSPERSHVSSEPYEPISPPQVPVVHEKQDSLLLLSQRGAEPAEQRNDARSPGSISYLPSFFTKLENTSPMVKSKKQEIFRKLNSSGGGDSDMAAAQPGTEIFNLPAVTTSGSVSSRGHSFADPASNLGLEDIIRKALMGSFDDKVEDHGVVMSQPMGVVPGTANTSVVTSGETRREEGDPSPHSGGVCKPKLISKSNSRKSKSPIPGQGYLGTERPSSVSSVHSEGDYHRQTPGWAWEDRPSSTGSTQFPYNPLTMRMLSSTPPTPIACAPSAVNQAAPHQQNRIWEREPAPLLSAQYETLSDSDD
UniProt Q60974: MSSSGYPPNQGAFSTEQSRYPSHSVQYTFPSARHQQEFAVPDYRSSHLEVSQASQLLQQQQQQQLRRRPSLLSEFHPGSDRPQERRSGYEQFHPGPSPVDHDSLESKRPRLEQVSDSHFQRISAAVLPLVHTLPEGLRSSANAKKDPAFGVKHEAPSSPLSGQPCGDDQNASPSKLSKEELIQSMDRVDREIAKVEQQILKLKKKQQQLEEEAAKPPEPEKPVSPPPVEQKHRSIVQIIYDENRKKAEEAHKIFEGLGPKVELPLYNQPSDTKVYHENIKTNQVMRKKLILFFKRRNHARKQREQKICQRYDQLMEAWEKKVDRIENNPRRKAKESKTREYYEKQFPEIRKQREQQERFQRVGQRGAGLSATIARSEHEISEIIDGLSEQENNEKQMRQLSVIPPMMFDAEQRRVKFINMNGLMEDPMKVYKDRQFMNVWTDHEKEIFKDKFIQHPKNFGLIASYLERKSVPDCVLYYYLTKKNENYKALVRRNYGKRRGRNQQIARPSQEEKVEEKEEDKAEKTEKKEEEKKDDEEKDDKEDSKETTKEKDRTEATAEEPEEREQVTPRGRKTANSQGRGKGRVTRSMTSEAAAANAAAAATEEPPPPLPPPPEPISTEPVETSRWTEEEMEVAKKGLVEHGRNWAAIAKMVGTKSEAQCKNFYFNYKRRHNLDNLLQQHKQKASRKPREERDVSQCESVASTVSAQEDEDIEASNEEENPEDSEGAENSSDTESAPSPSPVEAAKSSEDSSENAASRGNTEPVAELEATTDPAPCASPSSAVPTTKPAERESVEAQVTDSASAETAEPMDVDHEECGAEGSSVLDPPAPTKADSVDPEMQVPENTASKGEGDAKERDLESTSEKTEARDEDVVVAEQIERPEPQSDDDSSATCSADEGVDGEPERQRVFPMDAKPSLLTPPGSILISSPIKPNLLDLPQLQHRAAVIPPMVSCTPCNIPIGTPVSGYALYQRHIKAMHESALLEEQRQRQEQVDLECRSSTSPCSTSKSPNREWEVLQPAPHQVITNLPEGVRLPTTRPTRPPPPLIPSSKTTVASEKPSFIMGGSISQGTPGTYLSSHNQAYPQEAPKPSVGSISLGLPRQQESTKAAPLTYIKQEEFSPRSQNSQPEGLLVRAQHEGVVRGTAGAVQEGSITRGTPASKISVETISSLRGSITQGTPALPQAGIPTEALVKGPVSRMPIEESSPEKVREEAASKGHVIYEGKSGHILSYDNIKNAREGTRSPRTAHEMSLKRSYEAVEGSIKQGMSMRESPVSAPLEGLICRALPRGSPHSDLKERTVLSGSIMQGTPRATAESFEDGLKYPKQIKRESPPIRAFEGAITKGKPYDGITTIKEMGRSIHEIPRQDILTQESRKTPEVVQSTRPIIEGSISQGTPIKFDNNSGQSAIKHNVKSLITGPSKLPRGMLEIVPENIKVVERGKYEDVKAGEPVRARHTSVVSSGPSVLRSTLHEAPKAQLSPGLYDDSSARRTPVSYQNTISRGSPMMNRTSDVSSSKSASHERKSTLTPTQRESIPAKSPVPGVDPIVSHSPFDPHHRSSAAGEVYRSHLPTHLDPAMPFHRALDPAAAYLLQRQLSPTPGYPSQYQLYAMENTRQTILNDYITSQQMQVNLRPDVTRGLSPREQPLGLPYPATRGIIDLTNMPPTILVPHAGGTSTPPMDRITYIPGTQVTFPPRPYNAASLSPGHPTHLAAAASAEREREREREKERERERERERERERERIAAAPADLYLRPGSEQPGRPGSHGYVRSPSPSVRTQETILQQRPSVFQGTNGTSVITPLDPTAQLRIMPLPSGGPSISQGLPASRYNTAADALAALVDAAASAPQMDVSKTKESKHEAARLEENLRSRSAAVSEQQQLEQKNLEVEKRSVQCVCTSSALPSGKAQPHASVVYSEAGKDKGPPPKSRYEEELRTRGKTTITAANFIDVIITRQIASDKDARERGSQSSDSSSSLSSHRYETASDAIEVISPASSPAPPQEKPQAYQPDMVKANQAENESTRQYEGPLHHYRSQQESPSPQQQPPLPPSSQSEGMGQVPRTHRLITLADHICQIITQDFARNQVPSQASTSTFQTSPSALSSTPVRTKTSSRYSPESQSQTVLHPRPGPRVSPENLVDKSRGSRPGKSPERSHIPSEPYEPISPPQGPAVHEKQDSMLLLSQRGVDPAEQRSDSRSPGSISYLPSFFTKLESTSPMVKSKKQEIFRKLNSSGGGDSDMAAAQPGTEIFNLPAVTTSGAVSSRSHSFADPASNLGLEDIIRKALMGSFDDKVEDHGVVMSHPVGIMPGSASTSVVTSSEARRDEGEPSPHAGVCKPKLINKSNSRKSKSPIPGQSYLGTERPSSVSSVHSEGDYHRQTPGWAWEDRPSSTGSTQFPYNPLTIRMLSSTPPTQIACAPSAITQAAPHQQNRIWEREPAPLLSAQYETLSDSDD
UniProt P35222: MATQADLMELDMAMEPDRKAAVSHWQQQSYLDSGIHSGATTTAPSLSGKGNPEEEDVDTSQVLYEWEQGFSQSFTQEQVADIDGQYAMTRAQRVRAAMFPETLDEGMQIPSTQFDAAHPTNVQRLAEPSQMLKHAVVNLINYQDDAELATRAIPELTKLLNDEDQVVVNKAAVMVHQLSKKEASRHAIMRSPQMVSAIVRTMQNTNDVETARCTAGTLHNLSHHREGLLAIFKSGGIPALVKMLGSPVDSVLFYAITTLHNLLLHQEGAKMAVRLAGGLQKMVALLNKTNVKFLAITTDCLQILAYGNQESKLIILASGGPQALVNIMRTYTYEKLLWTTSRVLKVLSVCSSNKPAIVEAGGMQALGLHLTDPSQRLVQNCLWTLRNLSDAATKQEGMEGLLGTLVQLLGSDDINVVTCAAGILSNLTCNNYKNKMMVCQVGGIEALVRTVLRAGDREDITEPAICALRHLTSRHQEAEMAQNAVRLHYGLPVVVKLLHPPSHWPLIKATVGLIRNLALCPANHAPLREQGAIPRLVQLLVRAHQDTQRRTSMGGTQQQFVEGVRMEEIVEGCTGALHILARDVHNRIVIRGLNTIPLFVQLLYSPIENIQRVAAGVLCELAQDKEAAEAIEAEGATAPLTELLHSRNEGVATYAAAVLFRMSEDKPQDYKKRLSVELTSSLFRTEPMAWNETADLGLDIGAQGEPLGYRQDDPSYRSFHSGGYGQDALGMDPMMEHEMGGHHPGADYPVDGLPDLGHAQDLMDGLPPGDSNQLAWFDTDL
UniProt Q02248: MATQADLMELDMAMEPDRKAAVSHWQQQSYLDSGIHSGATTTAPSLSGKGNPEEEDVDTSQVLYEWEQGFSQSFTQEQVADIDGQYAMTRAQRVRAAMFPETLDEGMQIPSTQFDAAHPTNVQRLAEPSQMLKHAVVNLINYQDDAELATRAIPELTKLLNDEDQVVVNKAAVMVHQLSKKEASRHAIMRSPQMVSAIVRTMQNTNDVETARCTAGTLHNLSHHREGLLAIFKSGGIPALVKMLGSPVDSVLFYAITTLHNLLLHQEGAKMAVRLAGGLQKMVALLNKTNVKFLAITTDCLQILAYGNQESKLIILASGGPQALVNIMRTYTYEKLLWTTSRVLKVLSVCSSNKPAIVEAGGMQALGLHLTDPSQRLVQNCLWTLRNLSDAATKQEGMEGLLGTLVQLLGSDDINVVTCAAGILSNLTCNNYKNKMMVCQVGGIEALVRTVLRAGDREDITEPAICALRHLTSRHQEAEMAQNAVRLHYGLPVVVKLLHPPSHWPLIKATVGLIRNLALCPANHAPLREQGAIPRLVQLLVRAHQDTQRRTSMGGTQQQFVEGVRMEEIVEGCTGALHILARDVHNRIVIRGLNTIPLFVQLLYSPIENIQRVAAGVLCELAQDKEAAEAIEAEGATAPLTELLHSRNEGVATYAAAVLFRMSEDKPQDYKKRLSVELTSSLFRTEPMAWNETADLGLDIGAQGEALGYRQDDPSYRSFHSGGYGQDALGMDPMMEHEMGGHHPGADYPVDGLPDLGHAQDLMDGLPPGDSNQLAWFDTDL

Experiment [2] has as its target T2, FLAG-tagged transducin (beta)-like 1 X-linked receptor 1 (TBL1XR1), wild type, expressed in 293FT cells (UniProt Q9BZK7).
T2 sequence: T1 sequence with L10F
The experiment is described as above.

Experiment [3] deals with T3, FLAG-tagged mutant TBL1XR1 (TBL1XR1^Phe10Leu), expressed in HT22 cells (UniProt Q9BZK7).
T3 sequence: T1 sequence
As to the kind of experiment: co-IP; lysate of transfected HT22 cells in 50 mM Tris-HCl pH 7.4, 150 mM sodium chloride, 0.1% NP-40, protease inhibitors; primary antibodies and protein G Plus/Protein A agarose; Western blot, densitometry.

Experiment [4] deals with T4, FLAG-tagged transducin (beta)-like 1 X-linked receptor 1 (TBL1XR1), wild type, expressed in HT22 cells (UniProt Q9BZK7).
T4 sequence: T1 sequence with L10F
The description is as above.

For four substances, binding results are on record in PMC5460159.

Changes are numbered by the printed parent chain. No constants are given. Whether binding was seen depends on the method and setting. In cells and extracts the contact can be indirect. Some results given as binding are weak or reduced against the parent protein; the word gives no strength. Where a sequence is shown, tags or fusion partners need not be part of it.

As for “nuclear receptor corepressor (N-CoR), endogenous in 293FT cells (from UniProt O75376 1-2440)”, the binding entry in experiment [1] and in experiment [2] was “binds” each time.

As for “nuclear receptor corepressor (N-CoR), endogenous in HT22 cells (from UniProt Q60974 1-2453)”, the binding result in experiment [3] and in experiment [4] was “binds” each time.

Consider “β-catenin, endogenous in 293FT cells (from UniProt P35222 1-781)”, for which the binding entry in experiment [1] and in experiment [2] was “binds” each time.

With “β-catenin, endogenous in HT22 cells (from UniProt Q02248 1-781)”, the binding result in experiment [3] and in experiment [4] was “binds” each time.
